Values quoted from earlier work, collected in patent US11865128B2, “Aminoglycosides and uses thereof in treating genetic disorders” (Technion Research & Development Foundation Limited, priority 2010, dated 2024).
Some of these results come from one statement about several compounds together. At least one compound was matched to its structure with a doubt left.

System: human fibroblast cells
Conditions: background; cited from earlier work

Compound | LD50 against human fibroblast cells [mg/mL]
Gentamicin [reference compound] | 2.5 to 5.0
NC[C@@H]1O[C@H](O[C@H]2[C@@H](O)[C@H](O[C@@H]3[C@@H](O)[C@H](N)C[C@H](N)[C@H]3O[C@H]3O[C@H](CN)[C@@H](O)[C@H](O)[C@H]3N)O[C@@H]2CO)[C@H](N)[C@@H](O)[C@@H]1O [neomycin] | 2.5 to 5.0
